{"sequences": {"note": "By UniProt entry, the sequences of proteins in these tests, tags left out. Where a name states a change or a piece, a line headed by the entry shows the natural chain unless it says otherwise. Residues count along the entry.", "UniProt P08581, residues 25-932": "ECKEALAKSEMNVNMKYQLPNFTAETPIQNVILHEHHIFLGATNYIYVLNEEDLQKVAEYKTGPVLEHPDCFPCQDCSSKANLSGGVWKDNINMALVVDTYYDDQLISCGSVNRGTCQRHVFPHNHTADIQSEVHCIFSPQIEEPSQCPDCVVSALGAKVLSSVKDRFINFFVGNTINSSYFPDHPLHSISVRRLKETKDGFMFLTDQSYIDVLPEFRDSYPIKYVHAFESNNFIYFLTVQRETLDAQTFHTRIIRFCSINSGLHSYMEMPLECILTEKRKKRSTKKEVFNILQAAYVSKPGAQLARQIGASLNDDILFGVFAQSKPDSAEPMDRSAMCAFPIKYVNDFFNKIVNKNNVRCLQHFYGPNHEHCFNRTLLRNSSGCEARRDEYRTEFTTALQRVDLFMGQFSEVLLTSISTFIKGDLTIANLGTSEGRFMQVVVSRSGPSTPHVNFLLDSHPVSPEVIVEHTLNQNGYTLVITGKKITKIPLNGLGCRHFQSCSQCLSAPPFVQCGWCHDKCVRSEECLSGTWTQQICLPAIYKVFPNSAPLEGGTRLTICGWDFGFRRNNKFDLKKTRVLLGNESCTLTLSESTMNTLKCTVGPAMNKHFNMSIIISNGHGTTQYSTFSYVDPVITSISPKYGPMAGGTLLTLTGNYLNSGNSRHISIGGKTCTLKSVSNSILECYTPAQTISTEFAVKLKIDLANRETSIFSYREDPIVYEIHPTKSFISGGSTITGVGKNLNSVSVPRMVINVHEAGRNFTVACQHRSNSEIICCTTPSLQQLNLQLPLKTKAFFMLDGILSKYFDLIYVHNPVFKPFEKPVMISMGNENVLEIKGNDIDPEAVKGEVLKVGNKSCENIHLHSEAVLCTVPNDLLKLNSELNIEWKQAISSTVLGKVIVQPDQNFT", "UniProt P14210": "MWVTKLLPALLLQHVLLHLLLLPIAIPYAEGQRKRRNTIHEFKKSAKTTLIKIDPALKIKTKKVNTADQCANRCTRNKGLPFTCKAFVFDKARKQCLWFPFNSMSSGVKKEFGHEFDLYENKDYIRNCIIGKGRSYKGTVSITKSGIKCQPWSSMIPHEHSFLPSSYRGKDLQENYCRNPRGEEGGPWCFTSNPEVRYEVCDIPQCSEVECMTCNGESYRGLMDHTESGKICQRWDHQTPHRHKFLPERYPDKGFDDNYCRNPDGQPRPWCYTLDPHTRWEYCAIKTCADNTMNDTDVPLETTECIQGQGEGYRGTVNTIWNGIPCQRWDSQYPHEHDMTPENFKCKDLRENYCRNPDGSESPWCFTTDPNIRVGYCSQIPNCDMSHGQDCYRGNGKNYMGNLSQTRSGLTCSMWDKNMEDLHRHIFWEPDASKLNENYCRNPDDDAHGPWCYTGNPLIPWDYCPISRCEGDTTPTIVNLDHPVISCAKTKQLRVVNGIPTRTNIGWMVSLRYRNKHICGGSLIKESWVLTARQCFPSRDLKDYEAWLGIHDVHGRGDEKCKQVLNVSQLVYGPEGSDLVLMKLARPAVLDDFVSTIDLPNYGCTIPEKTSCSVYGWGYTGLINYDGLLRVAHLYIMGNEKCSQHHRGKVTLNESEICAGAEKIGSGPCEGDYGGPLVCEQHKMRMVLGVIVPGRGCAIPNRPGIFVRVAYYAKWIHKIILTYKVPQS"}, "source": "patent US20170204445A1", "about": "“IN VIVO SITE-SPECIFIC PROTEIN TAGGING USING ENGINEERED SORTASE VARIANTS” (priority 2016, published 2017)", "biological_target": "recombinant human Met-Fc (R&D Systems, 358-MT-100) (human) (UniProt P08581)", "assay": "yeast surface display, flow cytometry titration with Met-Fc", "note": "These are yes or no findings as the source states them, for the method shown. Some entries that bind do so weakly or less than the wild type."}
{"substance": "NK1 displayed on yeast with pCL-NK1-Aga2p-cGFP (from UniProt P14210 28-210; P32781 19-87; P42212 1-238) (ligand)", "values": [{"measurement": "binding", "value": "binds"}]}
